Test system: ovarian cancer tissue samples
Assay: Identification of tumor associated peptides presented on the cell surface (HLA immunoprecipitation, LC-MS); presentation across tumor types
Parameters: species or system human
Details: tumor types on which the peptide was found presented (HLA immunoprecipitation, LC-MS); abbreviations in table footnote

| Substance | Peptide Presentation on tumor types |
| --- | --- |
| 217 (VSSSLTLKV; listed as Homo sapiens) [compound 217] | BRCA, RCC |
| 638 (LRGLLPVLGQPIIRS; listed as Homo sapiens) [compound 638] | NSCLC |
| 200 (AESIPTVSF; listed as Homo sapiens) [compound 200] | NSCLC |
| 3 (ALIYNLVGI; listed as Homo sapiens) [compound 3] | HCC |
| 414 (EDAALFKAW; listed as Homo sapiens) [compound 414] | CLL, CRC, MEL, NHL |
| 289 (RWEKTDLTY; listed as Homo sapiens) [compound 289] | CRC, UEC |
| 480 (GRADIMIDF; listed as Homo sapiens) [compound 480] | BRCA, CRC, HNSCC, MEL, NSCLC, OSCAR, SCLC, UEC |
| 625 (DALRGLLPVLGQPIIRSIPQG; listed as Homo sapiens) [compound 625] | NSCLC |
| 539 (IPIPSTGSVEM; listed as Homo sapiens) [compound 539] | CCC, GC, HNSCC, NSCLC, OSCAR, PRCA, SCLC, UBC, UEC |
| 86 (VVLLGSLFSRK; listed as Homo sapiens) [compound 86] | AML, CRC, GC, HCC, PACA, RCC |
| 648 (GLLPVLGQPIIRSIPQGIVAA; listed as Homo sapiens) [compound 648] | NSCLC |
| 486 (DRFFWLKV; listed as Homo sapiens) [compound 486] | NSCLC, SCLC |
| 363 (TAKTPDATF; listed as Homo sapiens) [compound 363] | CCC |
| 429 (REKFIASVI; listed as Homo sapiens) [compound 429] | UEC |
| 241 (RQPNILVHL; listed as Homo sapiens) [compound 241] | UEC |
| 563 (PNFSGNWKIIRSENFEEL; listed as Homo sapiens) [compound 563] | NSCLC |
| 508 (TVAKTTTTF; listed as Homo sapiens) [compound 508] | UEC |
| 18 (KYPVHIYRL; listed as Homo sapiens) [compound 18] | AML, BRCA, GBC, GC, HNSCC, MEL, NHL, NSCLC, OSCAR, PACA, RCC, UBC, UEC |
| 268 (GLLGLSLRY; listed as Homo sapiens) [compound 268] | PRCA |
| 546 (GRAFFAAAF; listed as Homo sapiens) [compound 546] | CRC, GBM, HNSCC, MEL, NSCLC, OSCAR, PACA, SCLC, UBC, UEC |
| 418 (FEDAQGHIW; listed as Homo sapiens) [compound 418] | BRCA, CCC, CRC, HCC, NSCLC, OSCAR, PACA, UBC, UEC |
| 119 (APLPRPGAVL; listed as Homo sapiens) [compound 119] | MEL, OSCAR |
| 225 (SVFAHPRKL; listed as Homo sapiens) [compound 225] | BRCA, OSCAR |

| Substance | Peptide Presentation on tumor types |
| --- | --- |
| 682 (GVRGSLLSEADVRALGGL; listed as Homo sapiens) [compound 682] | NSCLC |
| 540 (AGIPAVALW; listed as Homo sapiens) [compound 540] | HCC, NSCLC, OSCAR |
| 302 (RVEEVRALL; listed as Homo sapiens) [compound 302] | BRCA, CRC, GBM, UBC |
| 286 (TVAPPQGVVK; listed as Homo sapiens) [compound 286] | HCC |
| 490 (AEVQKLLGP; listed as Homo sapiens) [compound 490] | HNSCC, NSCLC, OSCAR, UEC |
| 331 (FPHPEMTTSM; listed as Homo sapiens) [compound 331] | UEC |
| 109 (KTFTIKRFLAK; listed as Homo sapiens) [compound 109] | BRCA, CCC, MEL, NHL, NSCLC, OSCAR, SCLC, UEC |
| 94 (ATFERVLLR; listed as Homo sapiens) [compound 94] | BRCA, NSCLC |
| 639 (ALRGLLPVLGQPII; listed as Homo sapiens) [compound 639] | NSCLC |
| 399 (RELLHLVTL; listed as Homo sapiens) [compound 399] | NSCLC, SCLC, UEC |
| 13 (VYTFLSSTL; listed as Homo sapiens) [compound 13] | NSCLC |
| 474 (AADGGLRASVTL; listed as Homo sapiens) [compound 474] | BRCA, NSCLC, OSCAR |
| 296 (YPLRGSSI; listed as Homo sapiens) [compound 296] | UEC |
| 415 (REEDAALFKAW; listed as Homo sapiens) [compound 415] | BRCA, CLL, CRC, HCC, HNSCC, MEL, NHL, NSCLC, OSCAR, PRCA, UBC, UEC |
| 56 (SEPDTTASW; listed as Homo sapiens) [compound 56] | NSCLC, UEC |
| 407 (AEHEGVSVL; listed as Homo sapiens) [compound 407] | NSCLC, UEC |
| 99 (KVVDRWNEK; listed as Homo sapiens) [compound 99] | CRC, NHL, RCC |
| 520 (THSAMTHGF; listed as Homo sapiens) [compound 520] | NHL |
| 527 (QSTPYVNSV; listed as Homo sapiens) [compound 527] | UEC |
| 393 (ASKPHVEI; listed as Homo sapiens) [compound 393] | CRC |
| 43 (ALKARTVTF; listed as Homo sapiens) [compound 43] | BRCA, CCC, GBM, HCC, HNSCC, MEL, NHL, NSCLC, OSCAR, PRCA, SCLC, UBC, UEC |
| 96 (TAFGGFLKY; listed as Homo sapiens) [compound 96] | OSCAR, RCC |
| 471 (AQRLDPVYF; listed as Homo sapiens) [compound 471] | CCC, CRC, GBC, GEJC, NSCLC, OSCAR, PACA, SCLC, UBC |

| Substance | Peptide Presentation on tumor types |
| --- | --- |
| 4 (ALFKAWAL; listed as Homo sapiens) [compound 4] | AML, BRCA, CLL, CRC, GBC, GC, HCC, HNSCC, MEL, NHL, NSCLC, OSCAR, RCC, SCLC, UBC, UEC |
| 477 (RIQQQTNTY; listed as Homo sapiens) [compound 477] | GBM, SCLC |
| 240 (FSTDTSIVL; listed as Homo sapiens) [compound 240] | PACA |
| 317 (FPFQPGSV; listed as Homo sapiens) [compound 317] | AML, BRCA, CLL, CRC, GBC, GBM, GC, HCC, HNSCC, MEL, NHL, NSCLC, OSCAR, PACA, PRCA, RCC, SCLC, UBC, UEC |
| 149 (GPREALSRL; listed as Homo sapiens) [compound 149] | AML, BRCA, CCC, CRC, HCC, MEL, NHL, NSCLC, OSCAR, PACA, PRCA, RCC, SCLC, UEC |
| 454 (AQTDPTTGY; listed as Homo sapiens) [compound 454] | GBM, GC, NSCLC |
| 609 (LTVAEVQKLLGPHVEGLKA; listed as Homo sapiens) [compound 609] | NSCLC |
| 337 (HPVETSSAL; listed as Homo sapiens) [compound 337] | UEC |
| 68 (KLFDTQQFL; listed as Homo sapiens) [compound 68] | AML, BRCA, CRC, HCC, HNSCC, MEL, NHL, NSCLC, OSCAR, RCC |
| 496 (EVPTGTTAEVSR; listed as Homo sapiens) [compound 496] | UEC |
| 487 (GMADILVVF; listed as Homo sapiens) [compound 487] | NSCLC |
| 403 (EEAQWVRKY; listed as Homo sapiens) [compound 403] | BRCA, CLL, NHL |
| 146 (IPRPEVQAL; listed as Homo sapiens) [compound 146] | AML, CRC, GC, HNSCC, MEL |
| 283 (IVQEPTEEK; listed as Homo sapiens) [compound 283] | HCC, NHL, NSCLC |
| 59 (SENVTMKVV; listed as Homo sapiens) [compound 59] | UEC |
| 208 (TEVSRTEAI; listed as Homo sapiens) [compound 208] | NSCLC, UEC |
| 318 (FPNRLNLEA; listed as Homo sapiens) [compound 318] | CCC, CLL, GC, HNSCC, MEL, NSCLC, PRCA, RCC, SCLC, UBC |
| 456 (IPLERPLGEVY; listed as Homo sapiens) [compound 456] | BRCA, UEC |
| 11 (SYSDLHYGF; listed as Homo sapiens) [compound 11] | GC, NSCLC, UEC |
| 211 (EEKVFPSPLW; listed as Homo sapiens) [compound 211] | NHL |
| 22 (SLKERNPLK; listed as Homo sapiens) [compound 22] | NSCLC |
| 237 (SAMGTISIM; listed as Homo sapiens) [compound 237] | UEC |

Source: patent US20210340217A1, “NOVEL PEPTIDES AND COMBINATION OF PEPTIDES FOR USE IN IMMUNOTHERAPY AGAINST OVARIAN CANCER AND OTHER CANCERS” (Immatics Biotechnologies GmbH, priority 2017, published 2021)
